Results published in PMC7156630.
No constants are given. Whether binding was seen depends on the method and setting.

Biological target: RECK without the C-terminal segment (RECKΔC), from Expi293F cells (human) (UniProt O95980)
Assay: SEC-MALS; SEC-MALLS, Superdex 200 10/300 Increase, 20 mM Tris·HCl pH 7.4, 150 mM sodium chloride, 25 °C, in triplicate; both purified

B1: RECK without the C-terminal segment (RECKΔC), from Expi293F cells (domain or fragment, UniProt O95980 27-942)
chain: GLAPGSAGALCCNHSKDNQMCRDVCEQIFSSKSESRLKHLLQRAPDYCPETMVEIWNCMNSSLPGVFKKSDGWVGLGCCELAIALECRQACKQASSKNDISKVCRKEYENALFSCISRNEMGSVCCSYAGHHTNCREYCQAIFRTDSSPGPSQIKAVENYCASISPQLIHCVNNYTQSYPMRNPTDSLYCCDRAEDHACQNACKRILMSKKTEMEIVDGLIEGCKTQPLPQDPLWQCFLESSQSVHPGVTVHPPPSTGLDGAKLHCCSKANTSTCRELCTKLYSMSWGNTQSWQEFDRFCEYNPVEVSMLTCLADVREPCQLGCRNLTYCTNFNNRPTELFRSCNAQSDQGAMNDMKLWEKGSIKMPFINIPVLDIKKCQPEMWKAIACSLQIKPCHSKSRGSIICKSDCVEILKKCGDQNKFPEDHTAESICELLSPTDDLKNCIPLDTYLRPSTLGNIVEEVTHPCNPNPCPANELCEVNRKGCPSGDPCLPYFCVQGCKLGEASDFIVRQGTLIQVPSSAGEVGCYKICSCGQSGLLENCMEMHCIDLQKSCIVGGKRKSHGTSFSIDCNVCSCFAGNLVCSTRLCLSEHSSEDDRRTFTGLPCNCADQFVPVCGQNGRTYPSACIARCVGLQDHQFEFGSCMSKDPCNPNPCQKNQRCIPKPQVCLTTFDKFGCSQYECVPRQLACDQVQDPVCDTDHMEHNNLCTLYQRGKSLSYKGPCQPFCRATEPVCGHNGETYSSVCAAYSDRVAVDYYGDCQAVGVLSEHSSVAECASVKCPSLLAAGCKPIIPPGACCPLCAGMLRVLFDKEKLDTIAKVTNKKPITVLEILQKIRMHVSVPQCDVFGYFSIESEIVILIIPVDHYPKALQIEACNKEAEKIESLINSDSPTLASHVPLSALIISQVQVSSSVPSAIA
In the case of B1, the binding is reported as “no binding”.
